According to PubChem BioAssay AID328 (DTP/NCI, 2004):
The list does not hold the whole screen: it is rich in T/C values a quarter to a half above the control, in often repeated tests (any T/C) and in doses without a T/C. Further doses and runs are listed elsewhere. T/C gives the treated animals as a percentage of the vehicle group. Some doses have a count of surviving animals in place of a T/C: the source holds a T/C of zero for them, seemingly a mark for toxic or unscored doses. Some survivor counts are full or nearly so, which does not show that the dose was tolerated: survival well below the control is almost never listed, so the zero probably covers shortened survival too. Counts of survivors are from the toxicity check (mostly the fifth day) where no day follows; animals may have died later. Schedule codes are those of the source, read here as Q, the interval in days (D) or hours (H), X, the number of doses. Where survival is the endpoint, the PubChem record calls one and a half times the control and up active, and a quarter to a half above the control has no call in these data; cut-offs in other NCI protocols can differ.

System: BDF1 mice, P388 leukemia ip, median survival T/C
Experiment: NCI In Vivo Anticancer Drug Screen. Data for tumor model P388 Leukemia (intraperitoneal) in B6D2F1 (BDF1) mice
Details: T/C endpoint: median survival time, higher T/C = longer survival
Experimental: The antitumor activity of compounds was measured in mice bearing transplantable tumors. Survival or tumor size were measured and the results are expressed as the measurement made in the treated group (T) divided by the measurement made in the vehicle treated control group (C). The tumor model used in this assay is P388 Leukemia (intraperitoneal) in B6D2F1 (BDF1) mice

**Q.** Which results are given for `COc1c(Cl)cc2c(c1OC)N(C)C1N3C(=O)C4(C)SSC3(CC21O)C(=O)N4C` (stereo not given)?
**A.** survivor count (dose: 0.12 mg/kg/injection, schedule: Q01DX009 (ip), vehicle: Klucel (hydroxypropylcellulose) (HPC)): 6 of 6; survivor count (dose: 0.25 mg/kg/injection, schedule: Q01DX009 (ip), vehicle: Klucel (hydroxypropylcellulose) (HPC)): 6 of 6; survivor count (dose: 0.5 mg/kg/injection, schedule: Q01DX009 (ip), vehicle: Klucel (hydroxypropylcellulose) (HPC)): 6 of 6; T/C (dose: 1.0 mg/kg/injection, schedule: Q01DX009 (ip), vehicle: Klucel (hydroxypropylcellulose) (HPC)): 142 % of control

**Q.** For `CSc1nc(Cl)c(Br)c(Sc2nc(N)nc3nc[nH]c23)n1`, which T/C (dose: 200.0 mg/kg/injection, schedule: Q04DX003 (ip), vehicle: saline with Tween-80) is on record?
**A.** Its T/C is 129 % of control.

**Q.** What about the T/C (dose: 300.0 mg/kg/injection, schedule: Q04DX003 (ip), vehicle: saline with Tween-80) of the same compound?
**A.** Its T/C is 125 % of control.

**Q.** What does the source list for `COC(=O)C(CCCCNC(=O)OCc1ccccc1)NC(=O)C(CCCCNC(=O)OCc1ccccc1)NC(=O)OC(C)(C)C` (stereo not given)?
**A.** survivor count (dose: 50.0 mg/kg/injection, schedule: Q01DX005 (ip), vehicle: saline with Tween-80): 5 of 5; survivor count (dose: 100.0 mg/kg/injection, schedule: Q01DX005 (ip), vehicle: saline with Tween-80): 5 of 5

**Q.** With `O=NN(CCF)C(=O)Oc1cc(Cl)c(Cl)cc1Cl` as the compound, how does the T/C (dose: 12.5 mg/kg/injection, schedule: Q01DX001 (ip), vehicle: saline with Tween-80) read?
**A.** Its T/C is 139 % of control.

**Q.** What about the T/C (dose: 25.0 mg/kg/injection, schedule: Q01DX001 (ip), vehicle: saline with Tween-80) of the same compound?
**A.** Its T/C is 147 % of control.

**Q.** And the survivor count (dose: 50.0 mg/kg/injection, schedule: Q01DX001 (ip), vehicle: saline with Tween-80)?
**A.** Its survivor count is 3 of 6.

**Q.** What about the survivor count (dose: 100.0 mg/kg/injection, schedule: Q01DX001 (ip), vehicle: saline with Tween-80) of the same compound?
**A.** Its survivor count is 0 of 6.

**Q.** Which survivor count (dose: 50.0 mg/kg/injection, schedule: Q01DX009 (ip), vehicle: Klucel (hydroxypropylcellulose) (HPC)) does the source give for `Nc1nc(=S)c2[nH]c(N=Nc3ccc(S(=O)(=O)Nc4ccccn4)cc3)nc2[nH]1` here?
**A.** Its survivor count is 6 of 6.

**Q.** What about the survivor count (dose: 100.0 mg/kg/injection, schedule: Q01DX009 (ip), vehicle: Klucel (hydroxypropylcellulose) (HPC)) of the same compound?
**A.** Its survivor count is 6 of 6.

**Q.** And the survivor count (dose: 200.0 mg/kg/injection, schedule: Q01DX009 (ip), vehicle: Klucel (hydroxypropylcellulose) (HPC))?
**A.** Its survivor count is 6 of 6.
